Source: the supplement of paper PMC10849652
Some of the results follow.

Chains of the proteins cited; added tags and fusions are not shown. Lines headed by an entry give the natural chain unless they say otherwise; changes in a name come on top.
UniProt Q86VP6: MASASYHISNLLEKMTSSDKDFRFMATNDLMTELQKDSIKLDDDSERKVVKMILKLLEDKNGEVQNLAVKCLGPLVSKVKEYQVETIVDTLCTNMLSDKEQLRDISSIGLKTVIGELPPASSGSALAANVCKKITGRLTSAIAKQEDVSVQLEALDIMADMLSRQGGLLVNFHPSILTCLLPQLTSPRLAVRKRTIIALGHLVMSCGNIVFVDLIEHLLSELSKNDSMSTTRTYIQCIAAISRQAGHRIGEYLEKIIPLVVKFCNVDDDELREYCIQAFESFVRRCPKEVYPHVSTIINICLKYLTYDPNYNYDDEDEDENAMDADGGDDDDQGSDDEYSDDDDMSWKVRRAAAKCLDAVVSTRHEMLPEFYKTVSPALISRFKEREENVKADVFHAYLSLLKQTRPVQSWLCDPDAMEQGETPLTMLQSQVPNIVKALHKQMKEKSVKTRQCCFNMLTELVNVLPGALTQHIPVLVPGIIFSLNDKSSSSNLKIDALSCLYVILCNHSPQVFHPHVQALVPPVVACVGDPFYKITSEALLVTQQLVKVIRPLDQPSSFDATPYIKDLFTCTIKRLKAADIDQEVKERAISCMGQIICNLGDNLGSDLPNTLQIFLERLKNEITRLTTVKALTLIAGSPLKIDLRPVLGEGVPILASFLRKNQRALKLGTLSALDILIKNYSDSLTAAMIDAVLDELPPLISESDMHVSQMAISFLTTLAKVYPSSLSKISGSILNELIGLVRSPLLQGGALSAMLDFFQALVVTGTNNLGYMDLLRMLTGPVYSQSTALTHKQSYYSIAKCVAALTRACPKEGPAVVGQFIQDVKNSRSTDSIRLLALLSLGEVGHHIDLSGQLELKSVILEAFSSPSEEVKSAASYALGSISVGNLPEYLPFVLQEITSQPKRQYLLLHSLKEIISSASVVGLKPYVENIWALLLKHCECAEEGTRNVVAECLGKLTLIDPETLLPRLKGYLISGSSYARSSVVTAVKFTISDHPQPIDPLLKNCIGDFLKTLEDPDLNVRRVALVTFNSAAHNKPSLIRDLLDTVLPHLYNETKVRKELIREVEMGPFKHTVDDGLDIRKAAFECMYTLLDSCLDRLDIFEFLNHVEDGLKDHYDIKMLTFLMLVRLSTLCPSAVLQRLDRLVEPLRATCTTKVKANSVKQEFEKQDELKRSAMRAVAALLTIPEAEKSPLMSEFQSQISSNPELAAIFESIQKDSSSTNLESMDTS
UniProt P10643, whole entry, looked up: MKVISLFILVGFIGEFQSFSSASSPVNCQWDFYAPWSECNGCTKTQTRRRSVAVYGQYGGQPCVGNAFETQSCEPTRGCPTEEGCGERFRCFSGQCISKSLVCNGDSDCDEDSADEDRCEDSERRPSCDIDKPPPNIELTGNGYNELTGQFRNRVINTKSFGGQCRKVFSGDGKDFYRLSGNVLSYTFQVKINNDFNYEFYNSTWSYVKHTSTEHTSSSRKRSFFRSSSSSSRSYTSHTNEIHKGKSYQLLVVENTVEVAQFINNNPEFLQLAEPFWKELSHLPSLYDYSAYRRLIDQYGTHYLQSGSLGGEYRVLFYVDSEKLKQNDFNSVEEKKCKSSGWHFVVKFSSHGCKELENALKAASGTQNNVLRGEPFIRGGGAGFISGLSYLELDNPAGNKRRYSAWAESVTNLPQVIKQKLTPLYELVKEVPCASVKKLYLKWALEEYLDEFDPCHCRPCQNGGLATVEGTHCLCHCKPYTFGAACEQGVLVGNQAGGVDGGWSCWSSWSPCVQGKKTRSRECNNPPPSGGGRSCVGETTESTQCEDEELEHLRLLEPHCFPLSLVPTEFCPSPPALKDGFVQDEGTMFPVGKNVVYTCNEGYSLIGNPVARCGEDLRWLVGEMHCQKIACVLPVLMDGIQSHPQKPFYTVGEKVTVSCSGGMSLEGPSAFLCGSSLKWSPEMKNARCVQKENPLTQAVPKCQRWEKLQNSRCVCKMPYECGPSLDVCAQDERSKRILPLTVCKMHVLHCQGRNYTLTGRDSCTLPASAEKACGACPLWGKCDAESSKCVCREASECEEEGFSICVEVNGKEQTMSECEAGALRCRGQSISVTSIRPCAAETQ
UniProt O43852: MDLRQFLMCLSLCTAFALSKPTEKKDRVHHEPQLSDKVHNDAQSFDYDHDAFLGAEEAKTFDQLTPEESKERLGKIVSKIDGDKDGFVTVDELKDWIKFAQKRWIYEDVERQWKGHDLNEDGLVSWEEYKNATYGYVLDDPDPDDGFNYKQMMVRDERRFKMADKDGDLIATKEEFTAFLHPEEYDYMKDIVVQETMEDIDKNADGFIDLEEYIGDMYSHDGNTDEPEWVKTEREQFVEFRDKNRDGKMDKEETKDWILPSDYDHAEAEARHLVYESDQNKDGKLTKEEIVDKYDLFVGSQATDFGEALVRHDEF
UniProt Q9HAS0: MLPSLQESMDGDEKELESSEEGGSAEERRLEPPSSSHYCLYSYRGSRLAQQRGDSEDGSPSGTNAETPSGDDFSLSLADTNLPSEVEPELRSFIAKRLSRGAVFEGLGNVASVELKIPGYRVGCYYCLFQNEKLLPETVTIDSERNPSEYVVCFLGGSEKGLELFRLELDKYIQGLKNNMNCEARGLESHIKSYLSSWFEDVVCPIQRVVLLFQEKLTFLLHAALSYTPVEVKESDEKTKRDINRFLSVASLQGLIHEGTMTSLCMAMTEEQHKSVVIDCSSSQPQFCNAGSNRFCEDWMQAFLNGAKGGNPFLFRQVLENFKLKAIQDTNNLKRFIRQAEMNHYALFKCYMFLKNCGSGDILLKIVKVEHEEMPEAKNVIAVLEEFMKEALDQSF
UniProt P07384: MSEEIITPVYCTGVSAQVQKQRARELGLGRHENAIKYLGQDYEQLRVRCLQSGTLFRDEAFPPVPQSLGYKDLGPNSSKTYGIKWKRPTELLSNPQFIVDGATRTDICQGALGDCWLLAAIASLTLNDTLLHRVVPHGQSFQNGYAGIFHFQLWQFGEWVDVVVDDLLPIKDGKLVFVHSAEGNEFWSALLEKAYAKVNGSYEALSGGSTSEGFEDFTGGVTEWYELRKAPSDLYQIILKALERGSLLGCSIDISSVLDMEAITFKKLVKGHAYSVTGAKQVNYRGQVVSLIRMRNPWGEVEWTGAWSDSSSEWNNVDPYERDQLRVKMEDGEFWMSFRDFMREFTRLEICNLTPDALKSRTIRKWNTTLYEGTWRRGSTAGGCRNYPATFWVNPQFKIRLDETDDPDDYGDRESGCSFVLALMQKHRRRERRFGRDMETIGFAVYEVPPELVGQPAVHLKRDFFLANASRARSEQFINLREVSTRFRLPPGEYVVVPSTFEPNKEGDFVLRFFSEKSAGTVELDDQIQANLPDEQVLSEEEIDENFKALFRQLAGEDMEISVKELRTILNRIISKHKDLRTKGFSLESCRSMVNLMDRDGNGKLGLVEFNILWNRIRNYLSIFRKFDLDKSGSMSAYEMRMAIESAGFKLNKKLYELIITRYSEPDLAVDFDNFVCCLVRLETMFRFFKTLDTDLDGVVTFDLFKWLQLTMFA
UniProt Q07021: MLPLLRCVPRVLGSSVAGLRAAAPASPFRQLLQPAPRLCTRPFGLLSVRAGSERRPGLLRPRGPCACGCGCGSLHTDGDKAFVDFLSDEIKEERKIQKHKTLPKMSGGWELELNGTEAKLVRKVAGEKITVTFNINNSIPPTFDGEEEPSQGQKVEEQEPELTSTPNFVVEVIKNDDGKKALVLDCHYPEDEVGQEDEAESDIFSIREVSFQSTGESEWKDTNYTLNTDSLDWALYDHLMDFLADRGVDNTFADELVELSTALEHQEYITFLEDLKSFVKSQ
UniProt Q9BSJ5: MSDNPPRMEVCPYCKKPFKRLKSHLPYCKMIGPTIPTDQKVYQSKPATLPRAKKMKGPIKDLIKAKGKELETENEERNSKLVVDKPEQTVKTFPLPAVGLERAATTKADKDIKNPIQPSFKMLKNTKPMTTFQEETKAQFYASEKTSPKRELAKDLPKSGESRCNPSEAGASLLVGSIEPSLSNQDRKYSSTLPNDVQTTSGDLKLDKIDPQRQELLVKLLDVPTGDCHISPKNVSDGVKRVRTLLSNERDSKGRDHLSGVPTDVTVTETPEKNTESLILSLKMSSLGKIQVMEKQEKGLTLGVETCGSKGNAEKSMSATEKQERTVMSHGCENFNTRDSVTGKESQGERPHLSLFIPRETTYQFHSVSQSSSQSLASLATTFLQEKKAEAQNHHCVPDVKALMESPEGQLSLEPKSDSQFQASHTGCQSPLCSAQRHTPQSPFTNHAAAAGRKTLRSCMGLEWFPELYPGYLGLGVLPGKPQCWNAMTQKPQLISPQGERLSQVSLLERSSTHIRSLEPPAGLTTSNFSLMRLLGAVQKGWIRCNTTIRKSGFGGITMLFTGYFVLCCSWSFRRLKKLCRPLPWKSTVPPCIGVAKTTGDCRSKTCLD
UniProt P41223: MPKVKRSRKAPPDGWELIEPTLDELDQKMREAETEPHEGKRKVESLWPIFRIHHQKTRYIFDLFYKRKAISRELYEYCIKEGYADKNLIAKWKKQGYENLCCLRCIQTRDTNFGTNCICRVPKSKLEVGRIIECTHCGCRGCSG
UniProt Q6P1S2: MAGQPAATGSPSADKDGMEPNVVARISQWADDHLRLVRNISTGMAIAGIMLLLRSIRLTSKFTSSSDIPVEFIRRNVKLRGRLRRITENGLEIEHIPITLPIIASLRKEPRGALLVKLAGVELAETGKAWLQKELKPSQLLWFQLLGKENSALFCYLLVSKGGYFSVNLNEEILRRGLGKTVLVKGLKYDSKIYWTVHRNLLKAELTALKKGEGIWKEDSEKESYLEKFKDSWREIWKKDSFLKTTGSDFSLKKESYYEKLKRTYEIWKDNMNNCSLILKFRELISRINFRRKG
UniProt Q96K31: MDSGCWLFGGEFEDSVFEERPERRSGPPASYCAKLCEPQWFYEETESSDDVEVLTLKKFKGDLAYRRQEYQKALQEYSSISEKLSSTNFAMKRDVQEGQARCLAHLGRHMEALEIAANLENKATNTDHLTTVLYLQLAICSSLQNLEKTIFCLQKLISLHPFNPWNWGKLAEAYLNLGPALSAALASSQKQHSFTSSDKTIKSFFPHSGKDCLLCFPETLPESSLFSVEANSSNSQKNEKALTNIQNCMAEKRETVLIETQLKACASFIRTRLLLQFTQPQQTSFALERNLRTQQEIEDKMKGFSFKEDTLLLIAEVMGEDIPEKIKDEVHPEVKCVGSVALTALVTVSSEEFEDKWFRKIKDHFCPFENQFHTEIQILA
UniProt Q01518, whole entry, looked up: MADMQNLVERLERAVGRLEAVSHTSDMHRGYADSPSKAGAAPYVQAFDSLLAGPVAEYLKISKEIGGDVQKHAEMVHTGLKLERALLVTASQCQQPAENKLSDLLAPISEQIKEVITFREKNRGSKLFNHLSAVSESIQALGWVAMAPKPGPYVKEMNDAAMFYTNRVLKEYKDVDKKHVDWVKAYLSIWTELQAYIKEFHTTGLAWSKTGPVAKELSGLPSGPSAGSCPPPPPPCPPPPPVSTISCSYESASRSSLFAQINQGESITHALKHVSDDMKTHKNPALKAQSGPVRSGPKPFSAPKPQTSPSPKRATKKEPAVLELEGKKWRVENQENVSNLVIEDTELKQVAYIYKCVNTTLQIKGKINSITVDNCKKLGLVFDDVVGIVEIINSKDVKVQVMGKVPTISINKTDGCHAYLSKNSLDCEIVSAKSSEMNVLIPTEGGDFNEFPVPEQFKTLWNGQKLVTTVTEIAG
UniProt Q96B23: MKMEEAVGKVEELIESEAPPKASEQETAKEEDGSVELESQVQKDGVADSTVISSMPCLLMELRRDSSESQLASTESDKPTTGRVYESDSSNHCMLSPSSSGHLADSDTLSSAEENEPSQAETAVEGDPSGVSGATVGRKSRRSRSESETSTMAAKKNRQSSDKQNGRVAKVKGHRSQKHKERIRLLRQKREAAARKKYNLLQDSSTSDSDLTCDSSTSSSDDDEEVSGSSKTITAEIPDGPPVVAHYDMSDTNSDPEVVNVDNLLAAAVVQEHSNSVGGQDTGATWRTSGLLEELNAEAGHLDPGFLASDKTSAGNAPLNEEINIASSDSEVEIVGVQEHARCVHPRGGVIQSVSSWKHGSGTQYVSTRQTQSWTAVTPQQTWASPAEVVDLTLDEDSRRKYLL
UniProt Q9H425: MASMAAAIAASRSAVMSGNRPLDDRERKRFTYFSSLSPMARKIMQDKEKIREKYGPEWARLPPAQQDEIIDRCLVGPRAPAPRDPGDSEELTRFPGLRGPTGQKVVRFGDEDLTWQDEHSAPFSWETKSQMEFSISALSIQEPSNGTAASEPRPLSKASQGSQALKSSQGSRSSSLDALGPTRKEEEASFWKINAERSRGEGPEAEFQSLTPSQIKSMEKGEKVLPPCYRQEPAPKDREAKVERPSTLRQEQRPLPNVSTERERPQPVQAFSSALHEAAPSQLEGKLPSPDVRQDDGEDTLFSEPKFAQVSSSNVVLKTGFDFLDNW
UniProt Q9Y2V2: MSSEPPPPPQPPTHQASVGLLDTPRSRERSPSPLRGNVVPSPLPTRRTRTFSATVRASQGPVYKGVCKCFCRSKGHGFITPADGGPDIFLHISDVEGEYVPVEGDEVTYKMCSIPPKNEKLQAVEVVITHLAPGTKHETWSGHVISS

What was measured:
Experiment in all cases: log2 fold change, soluble protein after heating vs DMSO (PISA); higher = thermal stabilisation; K562 cells, 10 uM, 30 min; active = over 0.2 and 3.5 SD of the protein, either way, in both replicates (recomputed)
[1] = compound: CC[C@@H]1C(=O)N(C)c2cnc(Nc3ccc(C(=O)NC4CCN(C)CC4)cc3OC)nc2N1C1CCCC1
Summary of the method: (§1)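 Aliquots of K562 cells (2×10^6 cells/mL) treated with 10 μM compound for 30 min were heated for 3 min over 48°C-58°C. After pooling and extraction in PBS with 0.5% NP-40 at 4°C, soluble protein from a 21,000xg, 90 min spin was quantified by TMTpro 16plex LC-MS/MS with channel sums equalised. Thermal stability is expressed against control samples, from duplicates, as a log2 fold change.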

volasertib = compound: CC[C@@H]1C(=O)N(C)c2cnc(Nc3ccc(C(=O)N[C@H]4CC[C@H](N5CCN(CC6CC6)CC5)CC4)cc3OC)nc2N1C(C)C [volasertib]
Summary of the method: as §1

[2] = compound: CC[C@H](C)N1C=C(C2=C(C=C(C=C21)C3=CN=C(C=C3)N4CCNCC4)C(=O)NCC5=C(C=C(NC5=O)C)C)C
Summary of the method: as §1

epoxomicin = compound: CC[C@H](C)[C@@H](C(=O)N[C@@H]([C@@H](C)O)C(=O)N[C@@H](CC(C)C)C(=O)[C@]1(CO1)C)NC(=O)[C@H]([C@@H](C)CC)N(C)C(=O)C [epoxomicin]
Summary of the method: as §1

[3] = compound: CCn1c(C(=O)N(C2CC2)C2CC2)cc2c3c(ncn3C)c(Nc3cc(C)n(C)n3)nc21
Summary of the method: as §1

[4] = compound: CCn1cc(-c2ccnc3[nH]c(-c4cccc(CN(C)C)c4)cc23)c(-c2ccc(NC(=O)N(C)C)cc2)n1
Summary of the method: as §1

[5] = compound: CN(C)CC(=O)Nc1ccc2[nH]c(=O)c3ccccc3c2c1
Summary of the method: as §1

rosiglitazone = compound: CN(CCOC1=CC=C(C=C1)C[C@H]2C(=O)NC(=O)S2)C3=CC=CC=N3 (racemic) [rosiglitazone]
Summary of the method: as §1

[6] = compound: CN1C2=C(C3=C1C(=O)N(N=C3)CC4=CC(=CC=C4)N)SC(=C2)S(=O)C
Summary of the method: as §1

[7] = compound: CN1CCC(CNc2ccc3ncc(-c4cccc(OC(F)(F)F)c4)n3n2)CC1
Summary of the method: as §1

Measured: log2 fold change

C1orf50 (UniProt Q9BV19)
inactive: [1] 0.066 | volasertib 0.005 | [2] -0.071 | epoxomicin 0.245 | [3] -0.066 | [4] -0.141 | [5] 0.062 | rosiglitazone -0.035 | [6] 0.088 | [7] 0.108

CAND1 (UniProt Q86VP6)
inactive: [1] 0.008 | volasertib -0.044 | [2] -0.021 | epoxomicin 0.03 | [3] 0.013 | [4] -0.029 | [5] -0.011 | rosiglitazone -0.014 | [6] -0.046 | [7] -0.025

CACTIN isoform 2 (UniProt Q8WUQ7)
inactive: [1] -0.048 | volasertib -0.213 | [2] 0.008 | epoxomicin 0.072 | [3] 0.037 | [4] 0.035 | [5] -0.019 | rosiglitazone 0.057 | [6] 0.019 | [7] -0.151

2 neighbouring entries from above, quoted:
C1orf50 (UniProt Q9BV19)
inactive: [1] 0.066 | volasertib 0.005 | [2] -0.071 | epoxomicin 0.245 | [3] -0.066 | [4] -0.141 | [5] 0.062 | rosiglitazone -0.035 | [6] 0.088 | [7] 0.108

CAND1 (UniProt Q86VP6)
inactive: [1] 0.008 | volasertib -0.044 | [2] -0.021 | epoxomicin 0.03 | [3] 0.013 | [4] -0.029 | [5] -0.011 | rosiglitazone -0.014 | [6] -0.046 | [7] -0.025

Following part

C7 (UniProt P10643)
inactive: [1] 0.041 | volasertib -0.049 | [2] -0.119 | epoxomicin -0.237 | [3] 0.035 | [4] 0.186 | [5] -0.156 | rosiglitazone 0.094 | [6] 0.258 | [7] -0.089

C12orf45 (UniProt Q8N5I9)
inactive: [1] 0.024 | volasertib 0.013 | [2] -0.032 | epoxomicin 0.039 | [3] 0.002 | [4] 0.03 | [5] -0.006 | rosiglitazone 0.026 | [6] -0.028 | [7] -0.01

CANX isoform 2 (UniProt P27824)
inactive: [1] -0.017 | volasertib -0.012 | [2] 0.008 | epoxomicin 0.011 | [3] 0.025 | [4] 0.063 | [5] -0.002 | rosiglitazone -0.024 | [6] 0.037 | [7] 0.08

CALU isoform 4 (UniProt O43852)
inactive: [1] 0.076 | volasertib 0.042 | [2] -0.041 | epoxomicin 0.007 | [3] 0.004 | [4] 0.013 | [5] -0.026 | rosiglitazone -0.002 | [6] -0.032 | [7] -0.065

C17orf75 (UniProt Q9HAS0)
inactive: [1] 0.022 | volasertib -0.11 | [2] 0.015 | epoxomicin -0.071 | [3] -0.016 | [4] -0.009 | [5] 0.08 | rosiglitazone 0.014 | [6] 0.001 | [7] -0.068

BUB1 (UniProt O43683)
inactive: [1] 0.054 | volasertib 0.081 | [2] -0.123 | epoxomicin 0.021 | [3] -0.071 | [4] 0.042 | [5] -0.031 | rosiglitazone 0.156 | [6] 0.005 | [7] -0.297

CAPZA1 (UniProt P52907)
inactive: [1] -0.011 | volasertib -0.052 | [2] -0.018 | epoxomicin 0.008 | [3] 0.015 | [4] -0.072 | [5] 0.026 | rosiglitazone -0.005 | [6] -0.039 | [7] 0.004

CAPNS1 (UniProt P04632)
inactive: [1] 0.04 | volasertib 0.145 | [2] -0.027 | epoxomicin -0.014 | [3] 0.041 | [4] -0.016 | [5] -0.028 | rosiglitazone -0.008 | [6] -0.059 | [7] -0.014

CAPN1 (UniProt P07384)
inactive: [1] 0.043 | volasertib 0.067 | [2] -0.048 | epoxomicin 0.037 | [3] -0.005 | [4] -0.056 | [5] -0.012 | rosiglitazone -0.02 | [6] -0.049 | [7] 0.071

C1QBP (UniProt Q07021)
inactive: [1] -0.026 | volasertib 0.097 | [2] 0.017 | epoxomicin 0.007 | [3] 0.023 | [4] -0.063 | [5] -0.023 | rosiglitazone 0.017 | [6] -0.083 | [7] 0.098

C17orf80 (UniProt Q9BSJ5)
inactive: [1] -0.025 | volasertib -0.038 | [2] -0.14 | epoxomicin -0.167 | [3] 0.001 | [4] 0.012 | [5] -0.05 | rosiglitazone 0.01 | [6] 0.012 | [7] -0.046

BUD31 (UniProt P41223)
inactive: [1] 0.044 | volasertib -0.057 | [2] 0.087 | epoxomicin 0.059 | [3] -0.028 | [4] -0.056 | [5] 0.013 | rosiglitazone -0.008 | [6] -0.035 | [7] -0.053

BTN2A1 (UniProt Q7KYR7)
inactive: [1] 0.164 | volasertib -0.021 | [2] -0.028 | epoxomicin 0.024 | [3] -0.129 | [4] 0.012 | [5] 0.003 | rosiglitazone 0.015 | [6] 0.006 | [7] 0.128

C3orf33 (UniProt Q6P1S2)
inactive: [1] 0.065 | volasertib -0.05 | [2] 0.161 | epoxomicin 0.152 | [3] -0.04 | [4] 0.057 | [5] -0.075 | rosiglitazone 0.06 | [6] -0.059 | [7] 0.035

C8orf76 (UniProt Q96K31)
inactive: [1] 0.03 | volasertib 0.109 | [2] 0.028 | epoxomicin 0.011 | [3] 0.015 | [4] 0.01 | [5] -0.075 | rosiglitazone 0.013 | [6] -0.025 | [7] 0.021

C1orf174 (UniProt Q8IYL3)
inactive: [1] 0.216 | volasertib 0.061 | [2] 0.039 | epoxomicin -0.054 | [3] -0.009 | [4] 0.072 | [5] -0.037 | rosiglitazone -0.01 | [6] -0.06 | [7] 0.072

C20orf27 isoform 2 (UniProt Q9GZN8)
inactive: [1] 0.018 | volasertib 0.016 | [2] 0.028 | epoxomicin 0.024 | [3] -0.01 | [4] -0.169 | [5] 0.098 | rosiglitazone 0.076 | [6] -0.058 | [7] -0.102

BTF3L4 (UniProt Q96K17)
inactive: [1] 0.028 | volasertib 0.041 | [2] -0.033 | epoxomicin -0.018 | [3] -0.019 | [4] -0.005 | [5] 0.003 | rosiglitazone -0.015 | [6] -0.032 | [7] -0.004

C5orf22 (UniProt Q49AR2)
inactive: [1] -0.005 | volasertib -0.055 | [2] 0.031 | epoxomicin 0.107 | [3] -0.061 | [4] -0.07 | [5] -0.044 | rosiglitazone 0.064 | [6] -0.039 | [7] -0.068

CALCOCO1 (UniProt Q9P1Z2)
inactive: [1] -0.082 | volasertib -0.101 | [2] 0.068 | epoxomicin -0.092 | [3] -0.037 | [4] 0.088 | [5] 0.037 | rosiglitazone 0.114 | [6] -0.025 | [7] 0.148

CAPZB (UniProt P47756)
inactive: [1] -0.042 | volasertib -0.004 | [2] -0.002 | epoxomicin 0.002 | [3] 0.005 | [4] -0.016 | [5] -0.025 | rosiglitazone 0.007 | [6] -0.06 | [7] -0.004

BUB3 (UniProt O43684)
inactive: [1] 0.051 | volasertib 0.012 | [2] -0.004 | epoxomicin 0 | [3] -0.014 | [4] -0.014 | [5] -0.03 | rosiglitazone 0.013 | [6] -0.051 | [7] 0

CAP1 (UniProt Q01518)
inactive: [1] -0.033 | volasertib 0.019 | [2] 0.005 | epoxomicin 0.018 | [3] 0.014 | [4] -0.084 | [5] -0.022 | rosiglitazone 0.02 | [6] -0.103 | [7] -0.001

C18orf25 isoform 2 (UniProt Q96B23)
inactive: [1] 0.016 | volasertib 0.047 | [2] -0.039 | epoxomicin -0.028 | [3] -0.03 | [4] -0.146 | [5] 0.018 | rosiglitazone 0.025 | [6] -0.027 | [7] 0.152

C1orf198 (UniProt Q9H425)
inactive: [1] -0.084 | volasertib -0.097 | [2] 0.012 | epoxomicin 0.133 | [3] -0.04 | [4] 0.037 | [5] 0.035 | rosiglitazone -0.01 | [6] -0.022 | [7] 0.008

CARHSP1 (UniProt Q9Y2V2)
inactive: [1] 0.086 | volasertib 0.197 | [2] 0 | epoxomicin -0.026 | [3] 0.012 | [4] -0.021 | [5] 0.006 | rosiglitazone 0.074 | [6] -0.105 | [7] -0.035
